The target of assay [1] is GST-chm7-CΔC (budding yeast (W303 chromosomal DNA)). Briefly: pull-down.
Assay [2] has as its target Chm7-VN (budding yeast (endogenously tagged)). Kind of assay: split reporter.

These are yes or no findings as the source states them, for the method shown. A result given as binding can be weak or reduced; the word gives no strength. For some assays here: Where a sequence is shown, tags or fusion partners need not be part of it. For some assays here: In cells and extracts the contact can be indirect.

B1: recombinant heh2(1-308)-His6 (domain or fragment, UniProt Q03281 1-308)
chain: MDHRNLDPKTLKVSQLRRVLVENDVAFPANARKPVLVKLFEEKVRQRLQSSPEASKVRTSIQKVVKSGAKNADRKKTLKSKKLESSSSESKTVKDENVETNKRKREQISTDNEAKMQIQEEKSPKKKRKKRSSKANKPPESPPQSKSDGKATSADLTSELETVEELHKKDSSDDKPRVKELPKPELPNLKVSNEFLAQLNKELASAATENYDHSIKSTDLSSIRIETEEPVGPSTGAETRNESEVMENINLEVQPEVKEAKEELTKISETFDNQDEEDTSRLSSKKNIRSPKGRTRHFIANKTKRGID
As for B1, the binding result in assay [1] is recorded as “binds”.

B2: Vps20-VC (protein, UniProt Q04272 1-221)
chain: MGQKSSKVHITKTDRAILEVKRSKDEIHKFTRRTDNLILVEKSQLKDLIRKNPENYKSNMKVRFLLKRIHYQEHLLQQASDQLINLENMVSTLEFKMVEKQFINGLKNGNEILKKLNKEFSNVDELMDDVQDQIAYQNEINETLSRSLVGTSNYEDDLDKELDALESELNPEKMNNAKVANMPSTEGLPSLPQGEQTEQKEREEFATEERSDTKEPLALLS
Take B2: the binding entry in assay [2] was “no binding”.

B3: Snf7-VC (protein, UniProt P39929 1-240)
chain: MWSSLFGWTSSNAKNKESPTKAIVRLREHINLLSKKQSHLRTQITNQENEARIFLTKGNKVMAKNALKKKKTIEQLLSKVEGTMESMEQQLFSIESANLNLETMRAMQEGAKAMKTIHSGLDIDKVDETMDEIREQVELGDEISDAISRPLITGANEVDEDELDEELDMLAQENANQETSKIVNNNVNAAPISENKVSLPSVPSNKIKQSENSVKDGEEEEDEEDEDEKALRELQAEMGL
On to B3, for which the binding result in assay [2] is “binds”.

B4: Vps4-VC (enzyme, UniProt P52917 1-437)
chain: MSTGDFLTKGIELVQKAIDLDTATQYEEAYTAYYNGLDYLMLALKYEKNPKSKDLIRAKFTEYLNRAEQLKKHLESEEANAAKKSPSAGSGSNGGNKKISQEEGEDNGGEDNKKLRGALSSAILSEKPNVKWEDVAGLEGAKEALKEAVILPVKFPHLFKGNRKPTSGILLYGPPGTGKSYLAKAVATEANSTFFSVSSSDLVSKWMGESEKLVKQLFAMARENKPSIIFIDEVDALTGTRGEGESEASRRIKTELLVQMNGVGNDSQGVLVLGATNIPWQLDSAIRRRFERRIYIPLPDLAARTTMFEINVGDTPCVLTKEDYRTLGAMTEGYSGSDIAVVVKDALMQPIRKIQSATHFKDVSTEDDETRKLTPCSPGDDGAIEMSWTDIEADELKEPDLTIKDFLKAIKSTRPTVNEDDLLKQEQFTRDFGQEGN
For B4, the binding entry in assay [2] was “binds weakly”.

B5: Bro1-VC (protein, UniProt P48582 1-844)
chain: MKPYLFDLKLKDTEKLDWKKGLSSYLKKSYGSSQWRTFYDEKATSELDHLRNNANGELAPSSLSEQNLKYYSFLEHLYFRLGSKGSRLKMDFTWYDAEYSSAQKGLKYTQHTLAFEKSCTLFNIAVIFTQIARENINEDYKNSIANLTKAFSCFEYLSENFLNSPSVDLQSENTRFLANICHAEAQELFVLKLLNDQISSKQYTLISKLSRATCNLFQKCHDFMKEIDDDVAIYGEPKWKTTVTCKLHFYKSLSAYYHGLHLEEENRVGEAIAFLDFSMQQLISSLPFKTWLVEFIDFDGFKETLEKKQKELIKDNDFIYHESVPAVVQVDSIKALDAIKSPTWEKILEPYMQDVANKCDSLYRGIIPLDVYEKESIYSEEKATLLRKQVEETETANLEYSSFIEFTNLPRLLSDLEKQFSDGNIFSNTDTQGQLMRDQIQTWCKFIQTNEFRDIEEQMNKIVFKRKQILEILSALPNDQKENVTKLKSSLVAASNSDEKLFACVKPHIVEINLLNDNGKIWKKFDEFNRNTPPQPSLLDIDDTKNDKILELLKQVKGHAEDLRTLKEERSRNLSELRDEINNDDITKLLIINKGKSDVELKDLFEVELEKFEPLSTRIEATIYKQSSMIDDIKAKLDEIFHLSNFKDKSSGEEKFLEDRKNFFDKLQEAVKSFSIFASDLPKGIEFYDSLFNMSRDLAERVRVAKQTEDSTANSPAPPLPPLDSKASVVGGPPLLPQKSAAFQSLSRQGLNLGDQFQNLKISAGSDLPQGPGIPPRTYEASPYAATPTMAAPPVPPKQSQEDMYDLRRRKAVENEERELQENPTSFYNRPSVFDENMYSKYSS
For the molecule B5, the binding entry in assay [2] is on record as “no binding”.
